Data published in the supplement of paper PMC8728848.
The other results are listed elsewhere or left out.

How the values were obtained:
Experiment in all cases: glycan array binding signal (z-score within array); higher = stronger binding
Settings in all cases: glycan notation: IUPAC condensed, linker removed
[1] = target: Gal3S(b1-4)Glc
Summary of the method: (§1)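 Glycan array data came from 3228 arrays in the Consortium for Functional Glycomics database, and only arrays with an available protein sequence were kept. Glycan names were put into IUPAC-condensed notation, and columns mapping to the same glycan were averaged. The binding signal is a within-array Z-score, averaged across arrays of one protein sequence run at different concentrations or buffers and across linkers. A negative Z-score can be read as non-binding.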

[2] = target: Gal3S(b1-4)Glc6S
Summary of the method: as §1

[3] = target: Gal3S(b1-4)GlcNAc
Summary of the method: as §1

[4] = target: Gal3S(b1-4)[Fuc(a1-3)]Glc6S
Summary of the method: as §1

[5] = target: Gal3S(b1-4)[Fuc(a1-3)]GlcNAc
Summary of the method: as §1

[6] = target: Gal3S(b1-4)[Fuc(a1-3)]GlcNAc6S
Summary of the method: as §1

[7] = target: Gal3S4S(b1-4)GlcNAc
Summary of the method: as §1

[8] = target: Gal3S6S(b1-4)GlcNAc
Summary of the method: as §1

[9] = target: Gal3S6S(b1-4)GlcNAc6S
Summary of the method: as §1

[10] = target: Gal4S(b1-4)GlcNAc
Summary of the method: as §1

[11] = target: Gal4S6S(b1-4)GlcNAc
Summary of the method: as §1

[12] = target: Gal6P(b1-4)GlcNAc
Summary of the method: as §1

[13] = target: Gal6S(b1-3)GlcNAc
Summary of the method: as §1

[14] = target: Gal6S(b1-3)GlcNAc6S
Summary of the method: as §1

[15] = target: Gal6S(b1-4)Glc
Summary of the method: as §1

[16] = target: Gal6S(b1-4)Glc6S
Summary of the method: as §1

[17] = target: Gal6S(b1-4)GlcNAc
Summary of the method: as §1

[18] = target: Gal6S(b1-4)GlcNAc6S
Summary of the method: as §1

[19] = target: GalNAc(a1-3)Gal
Summary of the method: as §1

[20] = target: GalNAc(a1-3)GalNAc
Summary of the method: as §1

[21] = target: GalNAc(a1-3)GalNAc(b1-3)Gal(a1-4)Gal(b1-4)Glc
Summary of the method: as §1

[22] = target: GalNAc(a1-3)GalNAc(b1-3)Gal(a1-4)Gal(b1-4)GlcNAc
Summary of the method: as §1

[23] = target: GalNAc(b1-3)Gal
Summary of the method: as §1

[24] = target: GalNAc(b1-3)Gal(a1-4)Gal(b1-4)GlcNAc
Summary of the method: as §1

[25] = target: GalNAc(b1-3)Gal(a1-4)Gal(b1-4)GlcNAc(b1-3)Gal(b1-4)Glc
Summary of the method: as §1

[26] = target: GalNAc(b1-3)Gal(a1-6)Gal(b1-4)Glc
Summary of the method: as §1

[27] = target: GalNAc(b1-3)GalNAc
Summary of the method: as §1

[28] = target: GalNAc(b1-3)GlcNAc
Summary of the method: as §1

[29] = target: GalNAc(b1-4)Gal(b1-4)Glc
Summary of the method: as §1

[30] = target: GalNAc(b1-4)GlcNAc
Summary of the method: as §1

[31] = target: GalNAc(b1-4)GlcNAc(b1-2)Man
Summary of the method: as §1

[32] = target: GalNAc(b1-4)GlcNAc(b1-2)Man(a1-3)[GalNAc(b1-4)GlcNAc(b1-2)Man(a1-6)]Man(b1-4)GlcNAc(b1-4)GlcNAc
Summary of the method: as §1

[33] = target: GalNAc(b1-4)GlcNAc(b1-3)GalNAc(b1-4)GlcNAc
Summary of the method: as §1

[34] = target: GalNAc(b1-4)GlcNAc6S
Summary of the method: as §1

[35] = target: GalNAc(b1-6)GalNAc
Summary of the method: as §1

[36] = target: GalNAc3S(b1-4)GlcNAc
Summary of the method: as §1

[37] = target: GalNAc3S(b1-4)GlcNAc3S
Summary of the method: as §1

[38] = target: GalNAc3S(b1-4)[Fuc(a1-3)]GlcNAc
Summary of the method: as §1

[39] = target: GalNAc4S6S(b1-4)GlcNAc
Summary of the method: as §1

[40] = target: GalNAc6S(b1-4)GlcNAc
Summary of the method: as §1

[41] = target: Glc(a1-4)Glc
Summary of the method: as §1

[42] = target: Glc(a1-4)Glc(a1-4)Glc(a1-4)Glc
Summary of the method: as §1

[43] = target: Glc(a1-6)Glc(a1-6)Glc
Summary of the method: as §1

[44] = target: Glc(a1-6)Glc(a1-6)Glc(a1-6)Glc
Summary of the method: as §1

[45] = target: Glc(b1-4)Glc
Summary of the method: as §1

B1: Awp3 (Candida glabrata), B4UN32 (protein)
chain: MISFVTLLAILGLLSISWADQTVRSVAGDQRVTDPVIVGDNSILDYYGGSNYDFSNNFEIGRGTLYIGKESYFSSFQSAPTDVPNSFHLLIKNTNNLQNNGQFIIENIKRHANQCSNSSIQVFPINFQNDGEFEIISGGVEGRCCLPTSVIAPQNFLNNGKFYYKVLTDTGSIYSGSCMQNVDIGASTTTTVNNNLWEFTGSINAQINGAVSGAAQINLDGSNMFVNANTFSGQVVNLINGGSFLQTSDPLSNIVVINGLGTSDTGVTSIAVKGKGKSFTYNPSSGIVKLTTVEGKTYAYQIGCGYNTKKFITNNDSGASYESADNFFVLTYSEPYSPQTCQLENSSIFSSNFISTSTSSSSSSSSASSLPSSMSSSLPSSLSSSLSSSLSSSMSSSMSSLFIIPPPYTTTRSSGSSIIDTEIVSFYSTTDSPGHTITGTTTTTLYGPHTHSSVSTPSSSSESSTTSNSSIESSSLPHTSVSSTPESSITPSSNTISSSPTSDFSSVQSSSIMESSSVVASSSVINSSSIVDSSSSSASSLPSSMSSSLSSSMSSSLPSSMSSSLSSSLSSSLSSSMSSSMSSLFIIPPPYTTTRSSGSSIIDTEIVSFYSTTDSPGHTITGTTTTTLYGPHTHSSVSTPSSSSESSTTSNSSIESSSLPHTSVSSTPESSITPSSNTISSSPTSDFSSVQSSSIMESSSVVASSSVINSSSIVDSSSSSASSLPSSMPSSLPSSMSSSLSSSMSSSLSSSLSSSLSSSMSSSMSSLFIIPPPYTTTRSSGSSIIDTEIVSFYSTTDSPGHTITGTTTTTLYGPHTHSSVSTPSSSSESSTTSNSSIESSSLPHTSVSSTPESSITPSSNTISSSPTSDFSSVQSSSIMESSSVVASSSATQSSSVINSSSIVDSSSSSASSLPSSMPSSLPSSLSSSLSSSLSSSMSSSMSSLFIIPPPYTTTRSSGSSIIDTEIVSFYSTTDSPGHTITGTTTTTLYESSIYSSSSSTIQESELSNTSRTTMTSNSSVSISSTSSRSSFSNTKSSTIVISQSASLPDSKTDIILSTSSNIGYSSRSLLSDLGTSISDSDIHHSVLHSTESYSSNESGTNPFTSIASLSNFIPESSSHTSTALGSENSVISSDILTTMSHPVATNSGDKPTTPKRSEQVSTTMTSSGPTPDTSSFDTDGMSAYSRPEFTTNSLEVNKSSTSQLGNNKQTFSNLQLESTRPHSENEVDNNTRLLQSIQQSSTYGTNNVNPLSPTGSISIPLTEDGQGDNNNWNSPATNDLCTQISFNLTATTITVTDRITITDSIHDISSEVITSYIYQTIVDQKTVTQTVDGKSLANKMSSIPKPSSRSLIQPQPPVAIELQEGAASTSRVSLVSLFISIILVLL
glycan array binding signal (z-score) [1]: -0.288
glycan array binding signal (z-score) [2]: 0.567
glycan array binding signal (z-score) [3]: 0.034
glycan array binding signal (z-score) [4]: -0.179
glycan array binding signal (z-score) [5]: -1.29
glycan array binding signal (z-score) [6]: 0.138
glycan array binding signal (z-score) [7]: -1.97
glycan array binding signal (z-score) [8]: -0.19
glycan array binding signal (z-score) [9]: 0.735
glycan array binding signal (z-score) [10]: 0.542
glycan array binding signal (z-score) [11]: 0.372
glycan array binding signal (z-score) [12]: -0.735
glycan array binding signal (z-score) [13]: 0.328
glycan array binding signal (z-score) [14]: -0.952
glycan array binding signal (z-score) [15]: -0.705
glycan array binding signal (z-score) [16]: -0.858
glycan array binding signal (z-score) [17]: -0.916
glycan array binding signal (z-score) [18]: 0.823
glycan array binding signal (z-score) [19]: -1.64
glycan array binding signal (z-score) [20]: 1.65
glycan array binding signal (z-score) [21]: 0.575
glycan array binding signal (z-score) [22]: -0.69
glycan array binding signal (z-score) [23]: -1.03
glycan array binding signal (z-score) [24]: 0.048
glycan array binding signal (z-score) [25]: 0.371
glycan array binding signal (z-score) [26]: -0.02
glycan array binding signal (z-score) [27]: -0.016
glycan array binding signal (z-score) [28]: 0.71
glycan array binding signal (z-score) [29]: -0.258
glycan array binding signal (z-score) [30]: 0.598
glycan array binding signal (z-score) [31]: -0.52
glycan array binding signal (z-score) [32]: -0.86
glycan array binding signal (z-score) [33]: 0.204
glycan array binding signal (z-score) [34]: 1.93
glycan array binding signal (z-score) [35]: 0.141
glycan array binding signal (z-score) [36]: 3.17
glycan array binding signal (z-score) [37]: -0.246
glycan array binding signal (z-score) [38]: -0.523
glycan array binding signal (z-score) [39]: 1.26
glycan array binding signal (z-score) [40]: -0.649
glycan array binding signal (z-score) [41]: -0.148
glycan array binding signal (z-score) [42]: 1.35
glycan array binding signal (z-score) [43]: -0.29
glycan array binding signal (z-score) [44]: -0.202
glycan array binding signal (z-score) [45]: 0.358
